## Primary screen of a compound library

The values are deposited in ChEMBL (CHEMBL3988442, “University of Dundee, Small-Polar-MMV Screening Library” (2021)).

The filed quantity is “Percent Effect” (%). The record does not define 0% and 100%; most values in the screen are far below 50% and negative numbers occur (in some assays of this library far below -100). Compounds were drawn at random from those tested, without regard to their results. A dash means the value is not listed here; it may have been measured.

Mtb growth Cornell: 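Whole-cell assay for inhibitors of Mycobacterium tuberculosis growth, labelled Cornell in the record; the read-out is not stated. The concentration is filed as 10 mM, unlikely as a test dose, so the dose is not known. The record gives no direction; compounds strong in two other growth screens of this library score well above the rest, so higher reads as stronger inhibition. Of about 53,000 compounds tested this way, about 900 (1.7%) reached 50% or more in at least one test.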
Mtb heat-shock: 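Assay on Mycobacterium tuberculosis, filed only as a heat shock assay from Cornell; the read-out is not stated. The concentration is filed as 10 mM, unlikely as a test dose, so the dose is not known. Higher reads as stronger inhibition (inferred: compounds with an IC50 in retests scored well above the rest). About 69,000 compounds were tested under these conditions; 1.4% (about 930) showed 50% or more at least once.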

structure,Mtb growth Cornell,Mtb heat-shock
CC1CCN(CC(=O)N(C)CCc2noc(C3CC3)n2)C1=O (centres unmarked),-15.24,5.856
[H][C@@]12CCCC[C@]1(O)CCN(C(=O)c1ccc(C)cc1)C2,-23.33,-0.433
CC(C)C[C@H](N)c1nnc(SCC(=O)Nc2ccc(Br)cc2)o1.Cl,16.93,9.958
Cc1c(NC(C)C(C)C)cccc1C(=O)NCc1nccn1C (centres unmarked),16.17,1.232
O=C(C1CCOC1)N1CCN(Cc2ccncc2)c2ncccc2C1 (centres unmarked),11.61,-17.04
COCCCC1CCCCN1Cc1cn2cc(C)ccc2n1 (centres unmarked),-8.541,3.402
O=C(c1ccc2c(c1)OCO2)N1CCCC(n2ccnc2)C1 (centres unmarked),-8.338,-21.97
Cn1cc(NC(=O)NCc2ccsc2)ccc1=O,13.49,19.6
Cc1c(C(=O)N[C@H]2CN(CCS(C)(=O)=O)C[C@@H]2C2CC2)cnn1C,-,-3.65
O=C(O)C(F)(F)F.[H][C@@]12CN(C(=O)c3ccncc3F)C[C@]1([H])OCCN2CC1CC1,27.81,5.489
CCC(CC)c1cc(CNC(=O)N2CCOCC2CC)on1 (centres unmarked),6.046,-13.94
CC(C)Oc1ncccc1CNC(=O)c1cc[nH]n1,13.42,9.788
COCc1nccc(C2CCCN(Cc3cccc(C#N)c3)C2)n1 (centres unmarked),-12.94,8.704
CN(CCc1ccccc1)C1CCCN(Cc2nccn2C)C1 (centres unmarked),22,-24.19
Cc1nnc(SCc2cc(=O)n3c4c(sc3n2)CCCC4)[nH]1,14.08,9.124
CS(=O)(=O)NCC1CCCCN1C(=O)Nc1cccnc1N1CCCC1 (centres unmarked),-10.33,-0.2019
Cc1c(C(=O)NC2CCCC2)nnn1-c1ccccc1,-,-50.24
CCc1n[nH]c(C2CN(C(=O)c3cnns3)CCO2)n1 (centres unmarked),-14.66,6.499
CCc1ccc(C(=O)N2CCN(CC(C)O)CC2)o1 (centres unmarked),-,14.22
COCc1ccc(C(=O)N2CCCN(c3ccc(F)cc3)CC2)s1,37.03,8.153
[H][C@@]12CC(=O)N(CC)[C@@]1([H])CCN2S(=O)(=O)c1cccc(C)c1,-,-17.05
CC(C)(C)C(=O)N1CCN(Cn2nccc2-c2cccnc2)CC1,-,-16.01
CC1CCCCN1C1CN(c2ccnc(C(=O)NCc3ccco3)c2)C1 (centres unmarked),1.741,41.52
O=C(O)C(F)(F)F.[H][C@@]12CCN(S(C)(=O)=O)C[C@]1(C(=O)NCCc1ccccn1)CCO2,6.416,-5.552
[H][C@@]12C[C@H](C(=O)Nc3cnccn3)CN(c3ncc(F)cn3)[C@]1([H])CCO2,19.67,-15.61
CCc1ccc(CN(C)Cc2cnc(S(=O)(=O)CC)n2CCOC)cc1,12.21,-9.429
Cn1nccc1CCC(=O)N1CCOC(c2cnccn2)C1 (centres unmarked),-81.14,-30.58
Cc1ccccc1-n1cnc(Cl)c1C(=O)O,-11.84,8.198
CC(C)N1CCC(c2cnc(-c3cn[nH]c3)cn2)CC1,39.15,-4.997
CN(Cc1ccncc1)C(=O)NC1CCS(=O)(=O)C1 (centres unmarked),13.35,0.9251
[H][C@@]12CCN(C(=O)c3ccccc3)[C@]1([H])C(=O)N(Cc1ccccc1)C(=O)N2,-,-6.273
CC(C)NC(=O)NC(=O)C(C)N1CCN(C2CCN(C(C)C)CC2)CC1 (centres unmarked),-31.71,-26.41
CCN1Cc2ccccc2N(C(=O)C2CCC2)CCC1=O,-13.7,52.52
[H][C@]12CC[C@]([H])(CN(c3ncccn3)C1)N(C(=O)CSCCC)C2,-12.18,5.212
NCC1CCCCN1Cc1cc(O)c2cccc(F)c2n1 (centres unmarked),-27.15,-19.67
Cc1ccc(NC(=O)N2CCC(NC(=O)c3ccc(C)o3)CC2)cc1,-,-6.318
COc1cc(CNC(c2ccccc2)c2nccn2C)cc(OC)c1 (centres unmarked),-,110.9
COc1ccc(C(=O)N2CCC(Nc3cccnn3)CC2)cn1,-,-13.26
COCCC(=O)Nc1cnn(COc2ccc(F)cc2Cl)c1,-9.037,10.98
c1coc(CN2CCc3onc(Cn4ccnc4)c3C2)c1,19.2,-0.8095
COCc1nc2cc(NCc3nc(C)cs3)ccc2o1,107.4,4.744
Cn1c(=O)c2c(c3ccccc31)OC(C)(C)CC2,17.08,10.38
CCOc1ccccc1C(=O)NS(=O)(=O)c1ccc2c(c1)OCCCO2,27.03,-24.45
COc1cccc(CN2CCCCCC2c2cccc(F)c2)c1O (centres unmarked),45.8,-12.03
O=C(O)C(F)(F)F.[H][C@]12C[C@@H](Cn3cncn3)N(C(C)C)[C@@]1([H])CCN(c1ncccn1)C2,7.548,-6.456
CCCOC1CCCN(C(=O)c2ccc(S(N)(=O)=O)cc2)C1 (centres unmarked),-,0.1061
CN(CCn1cnnc1)S(=O)(=O)c1ccc(C(F)(F)F)nc1,-14.52,-11.88
O=C(NC1CC2(CCN(CCO)CC2)Oc2ccccc21)c1csnn1 (centres unmarked),-28.59,10.49
COCC(C)(C#N)NC(=O)COc1ccccc1 (centres unmarked),-11.35,-1.309
Cc1ccc(C(=O)NC2CCCN(c3ncccn3)C2)cn1 (centres unmarked),-12.7,-15.24
CCc1nnc(CN(C)c2nccc(CCC(F)(F)F)n2)o1,6.8,7.687
O=C(Nc1ccc(OC2CCCC2)cc1)C1CCCN1c1nccs1 (centres unmarked),-,-2.773
CN(Cc1n[nH]c(=O)n1Cc1cccs1)S(C)(=O)=O,-9.905,-6.799
CCN1CCN(C(C)CNC(=O)Nc2nnc(C)s2)CC1 (centres unmarked),-,4.136
Cn1cccc1-c1nnc(C2(c3ccc4c(c3)OCO4)CCOCC2)o1,8.621,-15.95
CC(=O)N1CCCC(Cc2cnc(-n3ccnc3)cn2)C1 (centres unmarked),-32.45,-15.23
c1cc(-c2nnn3c2COC(CNCC2CCOCC2)C3)ccn1 (centres unmarked),-47.46,-20.61
COc1ccc(S(=O)(=O)N2CCC(O)(CN(C)C)C2)cc1 (centres unmarked),-2.876,-15.84
CC(C)N1CCc2onc(Cn3cccc3)c2C1.O=C(O)C(F)(F)F,26.29,-32.52
CCCN1CCCC2(CCN(Cc3cncn3C3CCCCC3)C2)C1=O (centres unmarked),7.339,7.83
CCN1CCC(N2CCN(c3cc(-c4nc(C)no4)ccn3)CC2)CC1,-74.64,23.14
CCCN(CCC)C(=O)c1cnn(C)c1C,-20.74,-19.84
Cc1nn(C)c(C)c1CCC(=O)N(C)Cc1ccc2nsnc2c1,-,-24.94
CNC(=O)COC1COC2(CCN(Cc3cccnc3OC)CC2)C1.O=C(O)C(F)(F)F (centres unmarked),2.118,29.25
CCn1cc(CN2CCCN(C(=O)CCc3cnn(C)c3)CC2)cn1,-5.354,-8.802
CC(=O)Nc1ccc(Cl)c(C(=O)N(C)C(C)c2ccncn2)c1 (centres unmarked),10.64,0.3333
O=C(c1ccc2c(c1)CCC2)N1CCCCC1C1OCCO1 (centres unmarked),-19.62,0.09176
Cc1ccc(CN2CCN(C(=O)c3ccccc3O)C(C)C2=O)cc1 (centres unmarked),-,9.469
CC[C@@H]1N(CC2CC2)CCC[C@]12CCC(=O)N2CCOC.O=C(O)C(F)(F)F,52.28,22.79
CCN1CC2(CC1=O)CN(C(=O)c1ccsc1)CCN(C(=O)N(C)C)C2 (centres unmarked),-0.05473,-37.49
COc1ccc2c(c1)NC(C1CCNCC1)NS2(=O)=O (centres unmarked),10.49,-9.097
COc1ccccc1OCC(=O)NS(=O)(=O)c1cccnc1,19.75,15.71
COCCNc1cc(-c2ccccc2C(N)=O)c2cc[nH]c2n1,26.26,-5.203
Cc1cc(C(=O)N2CCc3c(CN(C)C)nn(C)c3C2)[nH]n1,23.52,-16.16
CC1CCN(CCNC(=O)C2CCN(S(N)(=O)=O)CC2)CC1,-13.65,13.99
CNC(=O)c1cccc(NCC(=O)Nc2cc(C)nn2C)c1C,21.3,-1.484
CCCC(O)CN1CC(C)(C)CN(C(=O)c2ccc(SC)cc2)CC1=O (centres unmarked),-0.6731,-1.906
c1cc(C2CCN(Cc3ccc4c(c3)OCO4)CC2)ccn1,-,17.58
CC(=O)Nc1ncc(S(=O)(=O)Nc2ccccc2F)s1,-,-15.14
C[C@@H]1CN(CC(C)(C)N2CCOCC2)C[C@@]1(O)C1CC1,-,-18.22
NC(=O)c1cn(CC2CCC2)c(C2CC2)n1,40.7,-12.87
COCCNC(=O)NCCc1ccn(-c2ccccc2)n1,-,-12.43
CN(C)CCN1C2(CCN(Cc3nccs3)C2)c2ccccc2S1(=O)=O.O=C(O)C(F)(F)F.O=C(O)C(F)(F)F (centres unmarked),-11.72,-2.036
O=C(O)C(F)(F)F.O=C(O)C(F)(F)F.[H][C@@]12CCN(C(=O)c3cncc(C)c3)[C@]1([H])CCC(=O)N2CCN(C)C,30.13,5.857

For reference, 4 entries once more:

- CNC(=O)COC1COC2(CCN(Cc3cccnc3OC)CC2)C1.O=C(O)C(F)(F)F (centres unmarked) | Mtb growth Cornell: 2.118%; Mtb heat-shock: 29.25%
- O=C(c1ccc2c(c1)OCO2)N1CCCC(n2ccnc2)C1 (centres unmarked) | Mtb growth Cornell: -8.338%; Mtb heat-shock: -21.97%
- CC(C)Oc1ncccc1CNC(=O)c1cc[nH]n1 | Mtb growth Cornell: 13.42%; Mtb heat-shock: 9.788%
- O=C(Nc1ccc(OC2CCCC2)cc1)C1CCCN1c1nccs1 (centres unmarked) | Mtb heat-shock: -2.773%